From the supplement of paper PMC12282887
± gives the standard deviation of the averaged measurements. Values are raw readings; no control value is given beside them.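 For antimicrobials the highest concentration approximated the MIC. Most other compounds topped out at 500 µM, and known inducer-like compounds reached up to 1 mM. Inocula for deletion strains were tenfold smaller, and any well growing below 10% of the overall median was considered non-growing.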

Tested on: Escherichia coli BW25113
Experiment: growth (OD600 area under curve, 8 h) (OD600 x h); higher = more growth
Experimental: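 E. coli BW25113 reporter strains (wild type, ΔmarA, ΔsoxS, Δrob, each carrying one of 8 lux reporter plasmids) were grown in 40 µl LB in 384-well plates at 37°C, 800 rpm, with each compound at 4 two-fold concentrations, in biological duplicates. Growth is the baseline-corrected OD600 area under the curve over 8 h (0-8 h WT, 1-9 h deletion strains).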

COc1ccc2[nH]c([S+]([O-])Cc3ncc(C)c(OC)c3C)nc2c1 (stereo unspecified) [Omeprazole]
growth
Settings	reporter plasmid: EVC	reporter plasmid: acrABp	reporter plasmid: marRABp	reporter plasmid: micFp	reporter plasmid: ompFp	reporter plasmid: robp	reporter plasmid: soxSp	reporter plasmid: tolCp
21.6 µg/ml, genetic background: wild type	3.11 ± 0.46	3.38 ± 0.2	3.43 ± 0.061	3.32 ± 0.31	3.21 ± 0.5	3.23 ± 0.36	3.25 ± 0.093	3.34 ± 0.089
21.6 µg/ml, genetic background: ΔmarA	3.07 ± 0.17	4.16 ± 0.14	3.56 ± 0.23	3.25 ± 0.75	3.25 ± 0.98	3.69 ± 0.34	2.91 ± 0.26	2.91 ± 0.13
21.6 µg/ml, genetic background: Δrob	3.13 ± 0.6	3.09 ± 0.074	3.47 ± 0.32	2.93 ± 0.61	2.43 ± 0.76	2.85 ± 0.24	3.12 ± 0.053	3.239 ± 0.021
21.6 µg/ml, genetic background: ΔsoxS	3.334 ± 0.0045	3.17 ± 0.082	3.28 ± 0.7	3.05 ± 0.087	2.92 ± 0.11	3.31 ± 0.25	3.11 ± 0.31	3.38 ± 0.23
43.2 µg/ml, genetic background: wild type	3 ± 0.5	3.357 ± 0.025	3.28 ± 0.11	3.16 ± 0.42	3.15 ± 0.36	3.04 ± 0.38	3.13 ± 0.27	3.09 ± 0.14
43.2 µg/ml, genetic background: ΔmarA	3.05 ± 0.15	3.72 ± 0.2	3.2 ± 0.71	3.16 ± 0.71	3.07 ± 1.2	3.3 ± 0.34	2.91 ± 0.42	2.85 ± 0.31
43.2 µg/ml, genetic background: Δrob	2.91 ± 0.45	2.86 ± 0.071	3.17 ± 0.36	2.97 ± 0.76	2.31 ± 0.52	2.7 ± 0.17	3.02 ± 0.15	3.276 ± 0.031
43.2 µg/ml, genetic background: ΔsoxS	3.28 ± 0.029	3.19 ± 0.057	3.2 ± 0.72	2.631 ± 0.0092	2.92 ± 0.022	3.21 ± 0.31	2.97 ± 0.5	3.22 ± 0.33
86.4 µg/ml, genetic background: wild type	3.23 ± 0.28	3.18 ± 0.34	3.38 ± 0.33	3.07 ± 0.31	3.26 ± 0.082	3.33 ± 0.059	3.13 ± 0.2	3.2 ± 0.065
86.4 µg/ml, genetic background: ΔmarA	3.07 ± 0.24	4.14 ± 0.17	3.44 ± 0.37	2.67 ± 0.21	3.08 ± 1	3.43 ± 0.34	2.71 ± 0.44	2.87 ± 0.46
86.4 µg/ml, genetic background: Δrob	3.17 ± 0.43	3.08 ± 0.33	3.53 ± 0.3	2.81 ± 0.48	2.51 ± 0.56	2.86 ± 0.043	3.06 ± 0.49	3.09 ± 0.15
86.4 µg/ml, genetic background: ΔsoxS	3.35 ± 0.093	3.52 ± 0.37	3.51 ± 0.61	2.5 ± 0.12	3.04 ± 0.08	3.5 ± 0.073	2.96 ± 0.7	3.23 ± 0.24
172.7 µg/ml, genetic background: wild type	3.01 ± 0.17	3.06 ± 0.15	3.25 ± 0.095	3.21 ± 0.12	3.12 ± 0.093	3.4 ± 0.15	3.17 ± 0.053	3.25 ± 0.027
172.7 µg/ml, genetic background: ΔmarA	3.14 ± 0.23	4.05 ± 0.2	3.29 ± 0.37	2.78 ± 0.077	3.19 ± 0.56	3.49 ± 0.34	2.9 ± 0.45	2.86 ± 0.2
172.7 µg/ml, genetic background: Δrob	2.97 ± 0.88	2.73 ± 0.16	3.44 ± 0.28	3.2 ± 0.47	2.65 ± 0.17	2.77 ± 0.12	2.71 ± 0.041	3.06 ± 0.32
172.7 µg/ml, genetic background: ΔsoxS	3.53 ± 0.15	3.19 ± 0.18	3.11 ± 0.83	2.87 ± 0.39	2.93 ± 0.052	3.45 ± 0.17	3.14 ± 0.41	3.44 ± 0.13

CC(=O)C(NC(=O)C(C)C(O)C(C)NC(=O)C(NC(=O)c1nc(C(CC(N)=O)NCC(N)C(N)=O)nc(N)c1C)C(O[C@@H]1O[C@@H](CO)[C@@H](O)[C@H](O)[C@]1(C)O[C@@H]1OC(CO)[C@H](O)[C@](O)(C(N)=O)[C@H]1O)c1cnc[nH]1)C(=O)NCCC1=NC(c2nc(C(N)=O)cs2)CS1 (stereo partly specified) [Phleomycin]
growth
Settings	reporter plasmid: EVC	reporter plasmid: acrABp	reporter plasmid: marRABp	reporter plasmid: micFp	reporter plasmid: ompFp	reporter plasmid: robp	reporter plasmid: soxSp	reporter plasmid: tolCp
0.62 µg/ml, genetic background: wild type	2.17 ± 0.44	1.61 ± 0.25	1.88 ± 0.44	1.98 ± 0.13	1.38 ± 0.031	1.94 ± 0.21	2.35 ± 0.044	2.16 ± 0.23
0.62 µg/ml, genetic background: ΔmarA	1.54 ± 0.16	0.81 ± 0.33	0.341 ± 0.11	1.32 ± 0.95	0.647 ± 0.4	1.15 ± 0.46	1.44 ± 0.21	1 ± 0.36
0.62 µg/ml, genetic background: Δrob	1.01 ± 0.2	0.3 ± 0.16	0.867 ± 0.82	1.58 ± 0.35	0.36 ± 0.26	0.271 ± 0.2	1.54 ± 0.26	1.55 ± 0.55
0.62 µg/ml, genetic background: ΔsoxS	1.47 ± 0.62	1.35 ± 0.47	0.403 ± 0.38	1.3 ± 0.16	1.05 ± 0.51	1.2 ± 0.4	1.02 ± 0.71	1.34 ± 0.17
1.2 µg/ml, genetic background: wild type	1.41 ± 0.28	0.554 ± 0.42	0.725 ± 0.56	1.41 ± 0.089	0.297 ± 0.045	0.685 ± 0.093	1.58 ± 0.1	1.45 ± 0.18
1.2 µg/ml, genetic background: ΔmarA	0.0758 ± 0.012	0.0205 ± 0.1	0.0266 ± 0.056	0.226 ± 0.33	-0.0222 ± 0.0063	0.0266 ± 0.044	0.0828 ± 0.03	0.0555 ± 0.082
1.2 µg/ml, genetic background: Δrob	0.0186 ± 0.16	-0.00388 ± 0.1	0.0957 ± 0.027	0.501 ± 0.69	-0.0214 ± 0.034	0.00377 ± 0.017	0.476 ± 0.56	0.481 ± 0.56
1.2 µg/ml, genetic background: ΔsoxS	0.523 ± 0.66	0.125 ± 0.077	0.0442 ± 0.11	0.147 ± 0.045	0.129 ± 0.19	0.111 ± 0.06	0.189 ± 0.24	0.15 ± 0.08
2.5 µg/ml, genetic background: wild type	0.646 ± 0.32	0.0886 ± 0.0065	0.161 ± 0.04	0.478 ± 0.051	0.0808 ± 0.0051	0.163 ± 0.0019	0.564 ± 0.17	0.603 ± 0.42
2.5 µg/ml, genetic background: ΔmarA	0.00541 ± 0.019	-0.0201 ± 0.068	-0.0144 ± 0.048	-0.0283 ± 0.077	-0.0636 ± 0.029	-0.036 ± 0.038	-0.011 ± 0.053	-0.0293 ± 0.059
2.5 µg/ml, genetic background: Δrob	-0.0358 ± 0.13	-0.0614 ± 0.098	0.0266 ± 0.017	-0.0172 ± 0.024	-0.0575 ± 0.0096	-0.00543 ± 0.018	-0.00565 ± 0.0076	0.0384 ± 0.0084
2.5 µg/ml, genetic background: ΔsoxS	0.0743 ± 0.099	0.0813 ± 0.085	-0.00943 ± 0.049	0.0403 ± 0.025	0.0344 ± 0.067	0.0258 ± 0.017	0.0427 ± 0.13	0.0116 ± 0.0063
5 µg/ml, genetic background: wild type	0.125 ± 0.042	0.0245 ± 0.055	0.0891 ± 0.0015	0.166 ± 0.0063	0.0596 ± 0.027	0.121 ± 0.012	0.172 ± 0.008	0.212 ± 0.026
5 µg/ml, genetic background: ΔmarA	-0.0148 ± 0.025	-0.0236 ± 0.067	-0.0036 ± 0.04	-0.0226 ± 0.043	-0.0463 ± 0.002	-0.028 ± 0.022	-0.0392 ± 0.045	-0.046 ± 0.081
5 µg/ml, genetic background: Δrob	-0.121 ± 0.16	-0.0309 ± 0.11	-0.0178 ± 0.037	-0.0815 ± 0.047	-0.0413 ± 0.0098	-0.0037 ± 0.0011	-0.00633 ± 0.0081	-0.0258 ± 0.015
5 µg/ml, genetic background: ΔsoxS	0.0244 ± 0.041	0.0304 ± 0.034	-0.0485 ± 0.086	-0.0112 ± 0.018	-0.00389 ± 0.059	0.0018 ± 0.03	-0.0011 ± 0.071	-0.013 ± 0.03
